Measurements reported in patent US20240425456A1, “DEGRADER” (ASKA PHARMACEUTICAL CO., LTD., priority 2021, published 2024).
Some of these results come from one statement about several compounds together.

Protein sequences, listed by entry. Tags and fused reporters are not part of them. Lines headed by an entry give the natural chain unless they say otherwise; changes in a name come on top.
UniProt P23458: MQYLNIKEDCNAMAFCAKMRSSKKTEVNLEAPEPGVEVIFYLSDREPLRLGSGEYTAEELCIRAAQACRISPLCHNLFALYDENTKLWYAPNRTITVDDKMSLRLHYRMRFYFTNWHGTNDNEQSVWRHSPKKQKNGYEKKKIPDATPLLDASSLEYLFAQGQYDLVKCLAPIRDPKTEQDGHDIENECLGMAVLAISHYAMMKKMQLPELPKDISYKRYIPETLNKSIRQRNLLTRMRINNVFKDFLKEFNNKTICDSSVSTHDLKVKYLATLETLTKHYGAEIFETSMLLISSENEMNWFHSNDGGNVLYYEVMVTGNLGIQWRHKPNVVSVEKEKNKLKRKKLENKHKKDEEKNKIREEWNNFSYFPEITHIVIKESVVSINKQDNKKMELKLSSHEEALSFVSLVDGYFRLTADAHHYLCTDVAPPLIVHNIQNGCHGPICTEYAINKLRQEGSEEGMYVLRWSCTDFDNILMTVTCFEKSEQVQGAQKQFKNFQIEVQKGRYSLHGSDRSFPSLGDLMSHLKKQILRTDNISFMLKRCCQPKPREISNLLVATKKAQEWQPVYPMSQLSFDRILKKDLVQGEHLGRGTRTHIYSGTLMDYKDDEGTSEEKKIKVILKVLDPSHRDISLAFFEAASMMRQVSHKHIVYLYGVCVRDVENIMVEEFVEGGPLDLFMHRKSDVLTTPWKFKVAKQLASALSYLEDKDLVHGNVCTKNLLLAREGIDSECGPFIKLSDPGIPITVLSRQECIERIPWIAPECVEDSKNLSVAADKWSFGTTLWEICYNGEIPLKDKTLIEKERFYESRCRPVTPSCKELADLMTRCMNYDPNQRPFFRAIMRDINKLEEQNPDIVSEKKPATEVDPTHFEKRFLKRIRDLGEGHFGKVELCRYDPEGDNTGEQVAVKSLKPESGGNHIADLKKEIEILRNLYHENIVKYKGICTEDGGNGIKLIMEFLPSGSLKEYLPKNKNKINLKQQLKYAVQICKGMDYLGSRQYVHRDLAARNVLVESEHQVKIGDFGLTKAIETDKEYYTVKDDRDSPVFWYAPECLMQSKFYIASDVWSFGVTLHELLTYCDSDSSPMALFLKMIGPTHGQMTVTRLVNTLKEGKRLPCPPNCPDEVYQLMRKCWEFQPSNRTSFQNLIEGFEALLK
UniProt O60674: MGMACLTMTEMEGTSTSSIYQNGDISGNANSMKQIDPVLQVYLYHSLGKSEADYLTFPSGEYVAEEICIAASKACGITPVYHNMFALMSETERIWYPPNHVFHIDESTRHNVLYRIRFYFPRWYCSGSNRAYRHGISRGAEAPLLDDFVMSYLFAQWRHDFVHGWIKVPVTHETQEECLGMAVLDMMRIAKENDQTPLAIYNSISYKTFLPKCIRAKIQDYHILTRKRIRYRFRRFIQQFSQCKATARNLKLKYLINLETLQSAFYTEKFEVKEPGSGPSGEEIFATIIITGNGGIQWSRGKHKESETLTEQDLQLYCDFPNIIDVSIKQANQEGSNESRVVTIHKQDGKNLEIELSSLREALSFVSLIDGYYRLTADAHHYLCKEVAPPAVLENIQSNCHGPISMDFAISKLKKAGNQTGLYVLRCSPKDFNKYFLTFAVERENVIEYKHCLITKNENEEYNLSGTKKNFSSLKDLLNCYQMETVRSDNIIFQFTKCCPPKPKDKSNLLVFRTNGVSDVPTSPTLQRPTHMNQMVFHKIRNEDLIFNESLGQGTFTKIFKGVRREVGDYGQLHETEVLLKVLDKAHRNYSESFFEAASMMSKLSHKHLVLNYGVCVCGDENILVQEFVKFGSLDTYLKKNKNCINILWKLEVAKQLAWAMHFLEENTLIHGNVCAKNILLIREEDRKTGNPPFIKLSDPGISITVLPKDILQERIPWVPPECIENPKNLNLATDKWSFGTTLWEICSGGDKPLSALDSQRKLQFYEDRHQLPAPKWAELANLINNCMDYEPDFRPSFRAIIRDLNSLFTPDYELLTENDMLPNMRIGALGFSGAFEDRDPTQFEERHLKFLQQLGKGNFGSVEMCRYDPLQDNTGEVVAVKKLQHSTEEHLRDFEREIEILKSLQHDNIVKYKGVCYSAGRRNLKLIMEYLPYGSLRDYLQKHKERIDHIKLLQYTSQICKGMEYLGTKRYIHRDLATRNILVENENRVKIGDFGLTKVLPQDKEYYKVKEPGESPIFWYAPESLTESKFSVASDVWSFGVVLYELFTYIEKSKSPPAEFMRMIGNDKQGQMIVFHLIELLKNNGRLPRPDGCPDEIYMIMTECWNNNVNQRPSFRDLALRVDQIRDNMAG
UniProt P29597: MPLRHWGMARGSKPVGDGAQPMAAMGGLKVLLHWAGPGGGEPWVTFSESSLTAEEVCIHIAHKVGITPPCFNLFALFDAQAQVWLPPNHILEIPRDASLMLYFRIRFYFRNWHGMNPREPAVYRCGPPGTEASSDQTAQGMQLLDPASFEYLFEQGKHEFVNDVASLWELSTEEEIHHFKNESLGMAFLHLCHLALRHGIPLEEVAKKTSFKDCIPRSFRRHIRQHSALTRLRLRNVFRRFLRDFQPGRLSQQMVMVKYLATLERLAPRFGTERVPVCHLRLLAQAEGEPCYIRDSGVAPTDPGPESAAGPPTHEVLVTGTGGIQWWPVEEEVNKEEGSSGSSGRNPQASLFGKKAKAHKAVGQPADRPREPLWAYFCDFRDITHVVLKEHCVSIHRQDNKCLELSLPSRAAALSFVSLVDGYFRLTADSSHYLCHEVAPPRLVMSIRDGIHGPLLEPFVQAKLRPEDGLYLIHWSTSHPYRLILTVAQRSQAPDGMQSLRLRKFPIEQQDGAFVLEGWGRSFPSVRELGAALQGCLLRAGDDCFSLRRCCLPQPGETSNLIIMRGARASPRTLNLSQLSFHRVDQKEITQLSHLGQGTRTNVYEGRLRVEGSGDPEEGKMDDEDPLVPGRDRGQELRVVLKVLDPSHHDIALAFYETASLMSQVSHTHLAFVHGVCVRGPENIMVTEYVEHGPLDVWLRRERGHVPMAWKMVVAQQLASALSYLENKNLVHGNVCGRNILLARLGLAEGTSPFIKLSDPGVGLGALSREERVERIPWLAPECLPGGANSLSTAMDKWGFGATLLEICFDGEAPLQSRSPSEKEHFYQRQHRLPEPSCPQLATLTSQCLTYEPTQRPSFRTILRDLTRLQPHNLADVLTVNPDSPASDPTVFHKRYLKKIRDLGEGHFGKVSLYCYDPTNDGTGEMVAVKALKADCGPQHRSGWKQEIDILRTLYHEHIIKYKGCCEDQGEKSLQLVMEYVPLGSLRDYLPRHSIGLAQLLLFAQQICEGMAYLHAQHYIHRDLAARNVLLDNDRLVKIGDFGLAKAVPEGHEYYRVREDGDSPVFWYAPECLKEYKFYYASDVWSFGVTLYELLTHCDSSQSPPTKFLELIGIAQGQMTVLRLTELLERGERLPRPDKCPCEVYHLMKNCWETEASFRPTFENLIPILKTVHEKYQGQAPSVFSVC

What was measured:
Assay type in all cases: cell-based
Settings in all cases: 1 μmol/L, 6 hours
JAK1 = target: T1, JAK1 (Homo sapiens, UniProt P23458); experiment: Degradation-inducing effect on JAK in Jurkat cells (chemiluminescent Western blotting), JAK1
T1 construct: endogenous in cells; host or cells: Jurkat cells
Procedure: (§1) The degradation-inducing effect of the compound of the present invention on JAK family proteins was evaluated in vitro using Jurkat cells, of which cell line was derived from human leukemic T cells.
(§2) JAK1, JAK2, JAK3, and Tyk2-positive Jurkat cells were seeded at a density of 1×10^5 cells/mL on 10 cm diameter dishes and then cultured in RPMI 1640 medium (FUJIFILM Wako Pure Chemical: catalog number: 189-02025) containing 10% FBS (Thermo Fisher Scientific: catalog number: 10437-028) at 5% CO2 and 37° C. for 3 days. Then, each of the test compounds (compounds of Examples 1 to 11 and Comparative Examples 1 and 2) was added to the dish at a final concentration of 1 μmol/L, and the cells were cultured in the presence of the test compound for 6 hours. After that, the cell culture medium was collected in a 15 mL centrifuge tube (1000 rpm (240× g), room temperature, 5 min), followed by washing with PBS (1000 rpm (240× g), room temperature, 5 min). Then, the cells in the centrifuge tube were collected in a 1.5 mL tube (3000 rpm (860× g), 4° C., 5 min), lysed using RIPA buffer (25 mmol/L Tris-HCl (pH 7.4), 25 mmol/L NaCl, 0.5 mmol/L EGTA (pH 8.0), 0.1% SDS, 1% protease inhibitor), sonicated at ice temperature (cycles of [7.5 sec sonication, 5 sec off] for 5 min) and subjected to centrifugation (15000 rpm (21600× g), 4° C., 30 min). The thus-obtained supernatant was used as the protein solution. Using the BCA protein assay kit (Thermo Fisher Scientific: catalog number: 23225), the protein concentration of the protein solution of each test compound was measured according to the kit instructions, and then adjusted to 1.4 mg/mL with RIPA buffer. The thus-adjusted protein solutions were subjected to a fully automated Western blotting device (Simple Westerns Wes: proteinSimple) to detect the protein levels (JAK1, JAK2, JAK3, and Tyk2 as the target proteins, and GAPDH (Glyceraldehyde 3-phosphate dehydrogenase) as the internal standard protein) in the protein solutions by chemiluminescent Western blotting.
(§3) Furthermore, the luminescence levels of JAK1, JAK2, JAK3, and Tyk2 detected by chemiluminescent Western blotting were quantified numerically by using an analysis software (Compass software for Simple Western (version 4.0.0)) attached to the fully automated Western blotting device. The numerical values of the quantified luminescence levels were corrected by the protein levels of the internal standard protein, i.e., GAPDH, (target protein levels/GAPDH protein levels), and compared among the test compounds with dimethyl sulfoxide (DMSO) as 100%.

JAK2 = target: T2, JAK2 (Homo sapiens, UniProt O60674); experiment: Degradation-inducing effect on JAK in Jurkat cells (chemiluminescent Western blotting), JAK2
T2 construct: endogenous in cells; host or cells: Jurkat cells
Procedure: as §1, §2, §3

JAK3 = target: T3, JAK3 (Homo sapiens, UniProt P52333); experiment: Degradation-inducing effect on JAK in Jurkat cells (chemiluminescent Western blotting), JAK3
T3 construct: endogenous in cells; host or cells: Jurkat cells
T3 sequence (P52333 1-1124): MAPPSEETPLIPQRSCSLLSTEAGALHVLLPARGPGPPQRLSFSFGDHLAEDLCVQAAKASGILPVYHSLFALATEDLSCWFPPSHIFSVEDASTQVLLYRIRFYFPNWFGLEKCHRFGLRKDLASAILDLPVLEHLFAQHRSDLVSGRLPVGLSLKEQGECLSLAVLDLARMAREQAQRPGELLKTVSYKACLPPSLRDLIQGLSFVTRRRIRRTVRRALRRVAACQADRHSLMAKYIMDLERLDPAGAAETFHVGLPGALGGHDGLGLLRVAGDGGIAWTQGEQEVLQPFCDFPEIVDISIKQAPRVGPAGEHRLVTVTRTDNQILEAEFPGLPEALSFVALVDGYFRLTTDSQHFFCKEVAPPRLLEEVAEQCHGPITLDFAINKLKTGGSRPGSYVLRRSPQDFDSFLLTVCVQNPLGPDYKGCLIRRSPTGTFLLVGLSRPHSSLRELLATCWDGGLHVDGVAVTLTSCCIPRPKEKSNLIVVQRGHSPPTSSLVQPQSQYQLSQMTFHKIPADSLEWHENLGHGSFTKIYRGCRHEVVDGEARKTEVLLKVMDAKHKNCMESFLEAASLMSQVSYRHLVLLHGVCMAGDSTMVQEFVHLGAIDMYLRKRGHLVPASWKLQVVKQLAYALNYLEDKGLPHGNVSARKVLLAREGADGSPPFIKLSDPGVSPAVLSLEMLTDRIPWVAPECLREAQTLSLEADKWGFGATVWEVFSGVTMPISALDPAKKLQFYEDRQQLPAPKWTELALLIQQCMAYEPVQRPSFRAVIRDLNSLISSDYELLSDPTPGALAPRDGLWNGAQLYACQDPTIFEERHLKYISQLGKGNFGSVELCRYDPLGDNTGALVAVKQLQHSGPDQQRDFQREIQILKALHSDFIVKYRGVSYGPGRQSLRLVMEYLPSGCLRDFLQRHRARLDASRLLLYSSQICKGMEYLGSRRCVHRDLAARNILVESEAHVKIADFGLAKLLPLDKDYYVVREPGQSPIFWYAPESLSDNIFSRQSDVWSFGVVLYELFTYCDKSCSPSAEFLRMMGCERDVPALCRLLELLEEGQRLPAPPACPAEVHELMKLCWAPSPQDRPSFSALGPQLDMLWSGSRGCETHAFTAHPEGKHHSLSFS
Procedure: as §1, §2, §3

Tyk2 = target: T4, Tyk2 (Homo sapiens, UniProt P29597); experiment: Degradation-inducing effect on JAK in Jurkat cells (chemiluminescent Western blotting), Tyk2
T4 construct: endogenous in cells; host or cells: Jurkat cells
Procedure: as §1, §2, §3

Structure (SMILES) | protein level of JAK1 (in words) (JAK1) | protein level of JAK2 (in words) (JAK2) | protein level of JAK3 (in words) (JAK3) | protein level of Tyk2 (in words) (Tyk2)
CNC(=O)c1cnc(Nc2ccc(C(=O)NCCCCCCCCCCC(=O)N[C@H](C(=O)N3C[C@H](O)C[C@H]3C(=O)NCc3ccc(-c4scnc4C)cc3)C(C)(C)C)cn2)cc1Nc1cccc(C(=O)NC)c1OC [Example 6, 6-((5-((11-(((S)-1-((2S,4R)-4-Hydroxy-2-((4-(4-methylthiazol-5-yl)benzyl)carbamoyl)pyrrolidin-1-yl)-3,3-dimethyl-1-oxobutan-2-yl)amino)-11-oxoundecyl)carbamoyl)pyridin-2-yl)amino)-4-((2-methoxy-3-(methylcarbamoyl)phenyl)amino)-N-methylnicotinamide] | not reduced | not reduced | not reduced | reduced
CNC(=O)c1cnc(Nc2ccc(C(=O)NCCCCCCCC(=O)N[C@H](C(=O)N3C[C@H](O)C[C@H]3C(=O)NCc3ccc(-c4scnc4C)cc3)C(C)(C)C)cn2)cc1Nc1cccc(C(=O)NC)c1OC [Example 3, 6-((5-((8-(((S)-1-((2S,4R)-4-Hydroxy-2-((4-(4-methylthiazol-5-yl)benzyl)carbamoyl)pyrrolidin-1-yl)-3,3-dimethyl-1-oxobutan-2-yl)amino)-8-oxooctyl)carbamoyl)pyridin-2-yl)amino)-4-((2-methoxy-3-(methylcarbamoyl)phenyl)amino)-N-methylnicotinamide] | not reduced | not reduced | not reduced | reduced
